The results in this text go back to US4471115A, “Water soluble derivatives of cephalex and process for their preparation” (Neopharmed S.p.A., priority 1980, dated 1984).

For data set [1] the following is noted: in vivo, po.
A further data set in a line: clinical. As to conditions: human, in vivo, po.

Structures can show the parent of a compound that is named as a salt. Where two headings read alike, the source gives them in different places.

On to `CC1=C(C(=O)O)N2C(=O)[C@@H](NC(=O)[C@H](NCO)c3ccccc3)[C@H]2SC1` [Example 1, Lysine salt of 2-N-methylol-cephalexin], for which, in data set [1] (human), the “Peak time levels greater than those of substance B” value is given as 3.5. The “Blood concentration of substance A as multiple of substance B” value is given as 1.3 in data set [1] (human, 60 min); 3.5 in data set [1] (human, 180 min); 24.0 in data set [1] (human, 360 min). Also, the “Area under the curve (AUC) relative to that of substance B” value in data set [1] is recorded as “about two”.

Regarding `CC1=C(C(=O)O)N2C(=O)[C@@H](NC(=O)[C@H](N)c3ccccc3)[C@H]2SC1` [substance B, cephalexin monohydrated, reference compound], in “clinical”, the dose excreted at 24 h came to 90.5%.
